In patent US20030180285A1, “Treatment of fungal infections with polyene or beta glucan synthase inhibitor anti-fungals combined with anti hsp90 antibodies” (priority 2000, published 2003):
Converted amounts (≈) assume the structure as drawn.

Columns and labels:
[1] = system: Candida albicans (outbreak); experiment: Broth microdilution test (MIC, colony counts); assay type: cell-based; conditions: C. albicans outbreak strain, no antibody, read-out: MIC to fluconazole
Experimental: (§1) Non-Aspergillus yeast strains used (Table 1) were plated onto Sabouraud's dextrose agar (Oxoid, Basingstoke, UK) and incubated at 37° C. for 24 hours. The strains were identified with the API 20C system (BioMerieux, Marcy L'Etoile, France). If needed, microscopical examinations of morphology on cornmeal agar (Oxoid) was used to confirm the identity.
(§2) For non-Aspergillus strains, suspensions were prepared from individual colonies (diameter≧1 mm) in 5 ml of sterile 0.85% saline to a density of […] as established by counting on a haemocytometer grid. For Aspergillus strains, see below.
(§3) RPMI broth was prepared from RPMI 1640 broth medium (Sigma R7880) supplemented with 0.3 g of glutamine per litre, buffered with 34.6 g of morpholine propanesulfonic acid (MOPS) per litre and adjusted to ph 7.0.
(§4) Twofold dilutions ([…] for amphotericin B and 400 to 0.4 mg/ml for fluconazole) were prepared in RPMI broth starting from the two stock solutions. A 100 μl suspension of the inoculum diluted 1 in 10 (equivalent to 1×10^3 cfu) was added to the microtiter plates. To this was added 50 μl of the antifungal and then 50 μl of the antibody. Antibody was either neat (0.4 mg/mil), or diluted to 1/10or 1/100. When antibody was absent, the 50 μl volume was made up by RPMI. […]
(§5) Colony counts were determined for the wells where there was a visual reduction in yeast growth. […]

[2] = system: C. albicans (Fluconazole resistant); experiment: Broth microdilution test (MIC, colony counts); assay type: cell-based; conditions: Candida albicans, no antibody
Experimental: as §1, §2, §3, §4, §5

Question: With OC(Cn1cncn1)(Cn1cncn1)c1ccc(F)cc1F [Fluconazole, fluconazole] as the compound, how does the MIC [1] read?
Answer: 1.56 µg/mL (≈ 5.09 µM)

Question: What about the MIC [2] of the same compound?
Answer: 25 µg/mL (≈ 81.6 µM)
